In article PMC8933003 one finds binding data, which are given here for one substance.

Sequences of proteins named here, by UniProt entry; tags and fusion partners are left off. Residues count along the entry.
UniProt O08852, residues 24-4293: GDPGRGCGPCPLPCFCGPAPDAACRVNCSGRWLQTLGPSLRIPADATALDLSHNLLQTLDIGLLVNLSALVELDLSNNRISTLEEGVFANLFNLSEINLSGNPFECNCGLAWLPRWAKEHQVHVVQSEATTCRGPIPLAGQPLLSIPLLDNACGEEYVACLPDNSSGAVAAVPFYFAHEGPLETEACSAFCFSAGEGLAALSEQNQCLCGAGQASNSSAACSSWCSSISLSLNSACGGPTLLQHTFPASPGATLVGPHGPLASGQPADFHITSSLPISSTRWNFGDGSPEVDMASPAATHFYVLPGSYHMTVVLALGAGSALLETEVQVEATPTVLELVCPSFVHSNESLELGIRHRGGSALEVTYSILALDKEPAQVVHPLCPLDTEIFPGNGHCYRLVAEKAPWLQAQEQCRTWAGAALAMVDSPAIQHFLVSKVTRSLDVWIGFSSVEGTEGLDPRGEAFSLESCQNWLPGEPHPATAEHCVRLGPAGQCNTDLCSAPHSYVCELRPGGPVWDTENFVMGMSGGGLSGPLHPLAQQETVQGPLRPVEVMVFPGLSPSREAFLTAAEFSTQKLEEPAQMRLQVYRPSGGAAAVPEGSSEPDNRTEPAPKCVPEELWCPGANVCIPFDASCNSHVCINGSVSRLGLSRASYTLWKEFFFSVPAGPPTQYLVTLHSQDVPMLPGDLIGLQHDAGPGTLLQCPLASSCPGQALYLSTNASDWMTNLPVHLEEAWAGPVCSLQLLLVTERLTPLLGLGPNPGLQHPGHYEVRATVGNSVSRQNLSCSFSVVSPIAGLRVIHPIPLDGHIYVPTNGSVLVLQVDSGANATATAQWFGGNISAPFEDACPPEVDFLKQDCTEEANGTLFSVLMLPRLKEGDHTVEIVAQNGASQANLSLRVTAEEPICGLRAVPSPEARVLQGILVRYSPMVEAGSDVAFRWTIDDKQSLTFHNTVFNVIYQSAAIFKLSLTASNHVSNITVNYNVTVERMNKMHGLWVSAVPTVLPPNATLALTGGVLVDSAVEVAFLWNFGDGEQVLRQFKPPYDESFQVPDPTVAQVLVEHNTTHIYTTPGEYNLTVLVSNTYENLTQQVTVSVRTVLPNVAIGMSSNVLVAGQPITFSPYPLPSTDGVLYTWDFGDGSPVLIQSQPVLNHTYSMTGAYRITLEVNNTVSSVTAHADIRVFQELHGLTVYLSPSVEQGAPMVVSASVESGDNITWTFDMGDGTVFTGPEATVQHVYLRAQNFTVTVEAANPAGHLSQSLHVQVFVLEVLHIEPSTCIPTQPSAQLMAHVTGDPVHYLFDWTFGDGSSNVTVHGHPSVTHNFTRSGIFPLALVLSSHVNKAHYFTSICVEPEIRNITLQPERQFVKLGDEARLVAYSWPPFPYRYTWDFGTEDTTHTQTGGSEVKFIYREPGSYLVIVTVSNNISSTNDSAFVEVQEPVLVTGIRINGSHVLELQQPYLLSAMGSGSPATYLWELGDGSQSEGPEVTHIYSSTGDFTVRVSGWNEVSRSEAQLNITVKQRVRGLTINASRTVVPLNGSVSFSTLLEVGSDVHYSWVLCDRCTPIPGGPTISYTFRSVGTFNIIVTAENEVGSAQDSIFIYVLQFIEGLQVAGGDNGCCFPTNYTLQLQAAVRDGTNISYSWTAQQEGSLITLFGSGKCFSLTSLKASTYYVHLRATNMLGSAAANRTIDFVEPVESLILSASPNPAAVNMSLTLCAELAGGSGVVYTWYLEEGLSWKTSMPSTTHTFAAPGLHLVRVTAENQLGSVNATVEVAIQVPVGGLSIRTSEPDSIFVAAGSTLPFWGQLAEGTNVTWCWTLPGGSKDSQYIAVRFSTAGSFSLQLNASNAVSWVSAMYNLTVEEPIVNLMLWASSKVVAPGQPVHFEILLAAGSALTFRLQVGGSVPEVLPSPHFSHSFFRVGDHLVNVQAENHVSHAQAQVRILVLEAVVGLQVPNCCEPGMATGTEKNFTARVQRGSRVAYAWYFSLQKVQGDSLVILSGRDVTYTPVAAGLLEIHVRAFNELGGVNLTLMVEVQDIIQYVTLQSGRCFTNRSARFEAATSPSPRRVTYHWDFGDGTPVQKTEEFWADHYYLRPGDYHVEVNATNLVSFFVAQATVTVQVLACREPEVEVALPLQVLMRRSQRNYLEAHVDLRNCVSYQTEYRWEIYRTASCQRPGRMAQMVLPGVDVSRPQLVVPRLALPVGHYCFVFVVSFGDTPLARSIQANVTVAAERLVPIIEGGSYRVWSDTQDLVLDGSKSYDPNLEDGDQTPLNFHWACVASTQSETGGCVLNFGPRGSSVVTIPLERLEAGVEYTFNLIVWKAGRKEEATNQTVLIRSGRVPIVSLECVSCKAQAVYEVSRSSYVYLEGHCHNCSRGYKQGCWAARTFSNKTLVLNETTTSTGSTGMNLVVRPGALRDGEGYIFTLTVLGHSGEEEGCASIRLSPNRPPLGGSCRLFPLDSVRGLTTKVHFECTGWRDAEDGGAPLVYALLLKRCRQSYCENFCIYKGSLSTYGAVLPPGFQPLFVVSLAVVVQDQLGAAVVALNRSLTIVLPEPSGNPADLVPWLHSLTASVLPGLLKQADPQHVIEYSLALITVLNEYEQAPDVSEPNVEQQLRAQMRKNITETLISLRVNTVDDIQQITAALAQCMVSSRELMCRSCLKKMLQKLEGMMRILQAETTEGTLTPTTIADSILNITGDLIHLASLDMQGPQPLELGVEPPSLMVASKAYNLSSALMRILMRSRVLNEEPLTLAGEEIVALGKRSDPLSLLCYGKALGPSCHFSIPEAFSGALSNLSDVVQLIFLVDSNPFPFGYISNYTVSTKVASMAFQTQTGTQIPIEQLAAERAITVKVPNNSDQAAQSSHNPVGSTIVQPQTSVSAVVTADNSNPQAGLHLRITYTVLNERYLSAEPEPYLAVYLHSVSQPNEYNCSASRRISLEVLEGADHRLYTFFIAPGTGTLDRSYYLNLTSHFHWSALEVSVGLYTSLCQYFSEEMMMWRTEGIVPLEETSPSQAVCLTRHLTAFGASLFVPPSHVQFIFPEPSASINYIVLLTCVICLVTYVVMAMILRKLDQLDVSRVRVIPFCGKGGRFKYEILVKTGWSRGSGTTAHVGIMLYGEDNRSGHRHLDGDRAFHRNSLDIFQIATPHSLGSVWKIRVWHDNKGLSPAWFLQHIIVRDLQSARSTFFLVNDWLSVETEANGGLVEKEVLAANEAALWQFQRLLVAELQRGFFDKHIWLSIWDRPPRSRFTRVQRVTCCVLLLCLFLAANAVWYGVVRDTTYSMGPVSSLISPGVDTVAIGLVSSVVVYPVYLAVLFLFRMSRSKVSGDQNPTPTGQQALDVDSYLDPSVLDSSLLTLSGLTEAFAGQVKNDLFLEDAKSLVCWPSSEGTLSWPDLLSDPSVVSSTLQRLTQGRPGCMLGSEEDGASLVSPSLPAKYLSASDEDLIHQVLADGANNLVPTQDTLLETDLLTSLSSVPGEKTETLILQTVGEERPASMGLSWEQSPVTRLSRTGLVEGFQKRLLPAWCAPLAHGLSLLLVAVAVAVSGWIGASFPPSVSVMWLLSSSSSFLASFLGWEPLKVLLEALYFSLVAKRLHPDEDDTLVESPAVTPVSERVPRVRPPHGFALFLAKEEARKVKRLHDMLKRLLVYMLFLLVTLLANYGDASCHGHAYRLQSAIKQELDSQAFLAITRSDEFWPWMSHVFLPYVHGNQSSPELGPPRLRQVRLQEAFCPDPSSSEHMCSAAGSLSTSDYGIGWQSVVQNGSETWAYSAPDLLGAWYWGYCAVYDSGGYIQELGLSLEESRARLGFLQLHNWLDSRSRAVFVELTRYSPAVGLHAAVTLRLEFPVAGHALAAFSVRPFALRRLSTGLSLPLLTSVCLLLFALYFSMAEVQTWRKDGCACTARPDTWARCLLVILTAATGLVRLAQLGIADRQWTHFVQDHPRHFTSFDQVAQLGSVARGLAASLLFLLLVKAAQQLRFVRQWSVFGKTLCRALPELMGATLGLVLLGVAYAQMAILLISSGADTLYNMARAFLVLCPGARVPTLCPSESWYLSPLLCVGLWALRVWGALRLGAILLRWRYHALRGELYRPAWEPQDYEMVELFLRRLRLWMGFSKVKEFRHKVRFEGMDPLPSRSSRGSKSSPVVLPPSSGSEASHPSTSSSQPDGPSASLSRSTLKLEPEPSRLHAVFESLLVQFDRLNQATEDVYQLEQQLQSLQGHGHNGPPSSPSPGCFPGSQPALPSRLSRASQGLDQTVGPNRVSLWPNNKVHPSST

No constants are given. Whether binding was seen depends on the method and setting. In cells and extracts the contact can be indirect. Some entries that bind do so weakly or less than the wild type.

For this experiment, the target named is T1, Polycystin-2 (mouse (endogenous in mesenteric arteries)) (UniProt O35245).
T1 sequence: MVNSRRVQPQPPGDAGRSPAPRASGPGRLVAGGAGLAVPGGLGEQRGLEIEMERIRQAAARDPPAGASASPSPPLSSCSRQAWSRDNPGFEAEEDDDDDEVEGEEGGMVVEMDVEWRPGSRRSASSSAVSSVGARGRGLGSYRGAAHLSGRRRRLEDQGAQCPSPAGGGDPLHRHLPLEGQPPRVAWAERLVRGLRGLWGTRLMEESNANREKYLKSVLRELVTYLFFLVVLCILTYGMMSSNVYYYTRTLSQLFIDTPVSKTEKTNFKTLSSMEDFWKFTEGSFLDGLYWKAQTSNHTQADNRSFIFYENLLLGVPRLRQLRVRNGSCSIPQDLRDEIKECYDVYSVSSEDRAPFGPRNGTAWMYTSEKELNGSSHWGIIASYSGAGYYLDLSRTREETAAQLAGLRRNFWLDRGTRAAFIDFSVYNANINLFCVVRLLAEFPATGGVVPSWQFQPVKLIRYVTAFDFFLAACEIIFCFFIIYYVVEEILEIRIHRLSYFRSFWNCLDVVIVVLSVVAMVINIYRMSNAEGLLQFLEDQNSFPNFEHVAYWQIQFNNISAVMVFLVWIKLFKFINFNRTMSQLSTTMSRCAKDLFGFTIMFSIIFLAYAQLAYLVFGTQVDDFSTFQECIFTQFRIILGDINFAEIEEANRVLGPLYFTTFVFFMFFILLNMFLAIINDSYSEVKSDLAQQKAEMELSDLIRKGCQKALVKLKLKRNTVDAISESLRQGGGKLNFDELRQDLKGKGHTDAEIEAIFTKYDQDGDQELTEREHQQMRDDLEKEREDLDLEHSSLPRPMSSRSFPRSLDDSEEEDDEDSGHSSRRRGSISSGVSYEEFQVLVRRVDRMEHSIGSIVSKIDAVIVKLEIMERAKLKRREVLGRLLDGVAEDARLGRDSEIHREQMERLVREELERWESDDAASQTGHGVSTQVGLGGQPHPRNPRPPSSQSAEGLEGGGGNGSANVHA
Description: co-IP; mouse mesenteric artery lysate (second- to fifth-order vessels); PC-2 antibody (1:20) covalently bound to protein A/G magnetic beads (Pierce crosslink magnetic IP/co-IP kit), overnight at 4°C; immunoprecipitates analyzed by Western blotting. In general terms: Immunoblotting shows a protein as a band on a membrane.

“Polycystin-1 (from UniProt O08852 24-4293)”: the binding result is given as “binds”.
